# Measurements as given in US8569482B2, “Nanoparticulate probe for in vivo monitoring of tissue oxygenation” (priority 2003, dated 2013).
# Tested on: bovine lung microvascular endothelial cells (BLMVECs)
# Settings: room air
substance,measurement,value
"Lithium 5,9,14,18,23,27,32,36-octa-n-butoxy-2,3-naphthalocyanine [LiNc-BuO]",intracellular oxygen concentration,194 µM
